# Source: the supplement of paper PMC3334620
# Whole data set: some 33,000 sequences, median “E-score (-0.5 to 0.5)” near -0.0034, cut for the highest 2% near 0.25. The list shows a part of the results.
# Molecular target: T1, Yap3 (UniProt P38749)
# T1 sequence: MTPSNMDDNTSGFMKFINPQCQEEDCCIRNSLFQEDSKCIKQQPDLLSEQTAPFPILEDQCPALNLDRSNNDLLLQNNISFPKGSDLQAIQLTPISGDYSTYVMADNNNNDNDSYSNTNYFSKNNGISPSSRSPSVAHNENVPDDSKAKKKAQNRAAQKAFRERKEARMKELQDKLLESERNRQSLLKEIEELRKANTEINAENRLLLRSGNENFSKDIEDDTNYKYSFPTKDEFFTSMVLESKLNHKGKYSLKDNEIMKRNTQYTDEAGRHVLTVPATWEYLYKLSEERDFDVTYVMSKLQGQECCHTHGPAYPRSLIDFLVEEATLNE
# Assay: PBM E-score (8-mer binding enrichment) (E-score (-0.5 to 0.5)); higher = stronger / more preferred TF binding
# Details: protein concentration: 100 nM; construct: GST-full length
# Experimental: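 Universal 'all 10-mer' protein binding microarrays (Agilent AMADID 015681) probed with GST-tagged S. cerevisiae TFs (full-length or DBD) made by in vitro transcription/translation (PURExpress), about 100-200 nM. Bound TF was detected with fluorescent anti-GST. Each ungapped 8-mer (which stands for itself and its reverse complement) is scored by the PBM enrichment score (E-score), a modified Wilcoxon-Mann-Whitney statistic from -0.5 to +0.5, computed with the Universal PBM Analysis Suite. Scale: above 0.35 generally sequence-specific binding.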
row,Sequence,PBM E-score
1,AAACTGCA,0.0201
2,CGCTCTAG,-0.21
3,AGGTTCCC,-0.219
4,CAGGACGA,-0.0732
5,AACTTTTC,0.0947
6,AGGGCCGG,-0.335
7,AACTGGGC,-0.236
8,CAACCTAC,0.0323
9,AAGTAGGG,0.148
10,AACATCCC,-0.0393
11,GGGACGCA,-0.184
12,CGAGCGAC,-0.078
13,AAGCATCT,0.0365
14,AACCACTC,0.0241
15,AGTAACCA,0.0583
16,ACCTATGA,-0.117
17,ACAATTGT,0.246
18,CCCTATCA,-0.0511
19,CCTACTGC,-0.181
20,CATCCCTA,0.018
21,GTCTACAC,0.0027
22,AGAGCTAT,-0.0689
23,ACCGGAAG,0.124
24,AATATCCG,0.219
25,GTCAGTAA,0.0943

row,Sequence,PBM E-score
1,AACTAACA,0.211
2,ATTAGCCA,0.104
3,ACAGGAAA,0.231
4,ACCTCGAA,0.00835
5,ACATGATA,0.263
6,GTCTATCA,0.0672
7,CCGGGGAC,-0.359
8,CTACGTCC,-0.0593
9,GTACCCCA,-0.161
10,ACAGGGCT,-0.226
11,GGGCTTAC,0.0848
12,AAGGTGTG,-0.0151
13,CCCCTCAA,-0.154
14,ACGTAGCC,-0.277
15,ATTTAAGA,0.107
16,ACATTACC,0.0935
17,GCCACCTA,-0.134
18,AATCCAAA,0.184
19,CCCGTGGC,-0.274
20,AATTCACG,0.016
21,CATGGGCA,-0.0447
22,GTGCAGCA,-0.204
23,GAATACAC,0.0407
24,ACAGAATA,0.156
25,GCTGTTCA,0.0667

row,Sequence,PBM E-score
1,AGGTTACA,-0.0016
2,GCAAGTGA,0.04
3,TAGGACAA,0.175
4,GGTAACCA,-0.0706
5,CGGAGTAC,-0.183
6,CACTACAG,-0.0657
7,ATGTAGTC,0.059
8,TGATCCCA,0.0451
9,GCTTTGAA,0.0381
10,CGTGGAAC,-0.141
11,ATTGTGGA,0.0763
12,ACGTGAAC,-0.0502
13,CGCGGGCC,-0.151
14,GACGGGGA,-0.164
15,CAGATGCC,-0.126
16,CCATTCAG,0.121
17,GCTTGGTA,0.147
18,AGGTCCTA,-0.275
19,GGATGGGA,-0.00463
20,CATGGTAC,0.099
21,TAGTACAA,0.104
22,CCCGCAGG,-0.265
23,CCCGTGAG,-0.134
24,AAAAGCCA,0.158
25,AAAGGCTG,-0.119

# Some of the entries so far, tab-delimited:
row	Sequence	PBM E-score
8	CAACCTAC	0.0323
19	CCTACTGC	-0.181
2	ATTAGCCA	0.104
19	CCCGTGGC	-0.274
13	CGCGGGCC	-0.151
25	AAAGGCTG	-0.119

# Next part

row,Sequence,PBM E-score
1,CATCGGGG,-0.224
2,ACGTCAGG,-0.0448
3,CGCACTTA,-0.0802
4,TCGGTACA,0.0158
5,CACTTCTA,-0.098
6,CTGATCAC,-0.0878
7,AAGAACGA,0.142
8,AGAAAGTA,0.147
9,GGCGCGAC,-0.00599
10,AAATGCCA,-0.0485
11,CCGTGCAC,-0.0612
12,GGTCATAA,0.144
13,AAGGCACA,-0.0116
14,ACGTCAAG,-0.0375
15,ACCCACTA,0.158
16,ACGTGAAA,0.211
17,CGCCATTC,-0.113
18,ATCATGAT,0.0948
19,TAGGGTAA,0.152
20,CCTCCCCC,-0.297
21,CATCGAGG,-0.049
22,AGTGCCCC,-0.218
23,GTGCTCAA,-0.00113
24,GTATGCGA,-0.00207
25,TCGCCTCA,0.0237

row,Sequence,PBM E-score
1,CCCGAATC,-0.0671
2,AGCGTACC,-0.225
3,ACAGATAA,0.141
4,GATGTTAA,0.132
5,AATCAATC,0.139
6,CTCCGTTA,-0.0621
7,CAAGGACC,-0.0543
8,AGGCGGGG,-0.0628
9,CATTACCA,0.1
10,ATCCTCCC,-0.0451
11,AAGCGCAG,-0.0347
12,ACGTGTAA,0.00157
13,ATATTCGA,0.0689
14,ATTATTTA,0.289
15,TCTCTCCA,-0.00365
16,TCCCAGAA,-0.107
17,ACACTGTA,0.124
18,CCTTACTA,0.281
19,CCGTGTCA,-0.0779
20,TCGACTAA,0.0735
21,AAATGACA,0.208
22,ATTCCTGA,0.0543
23,CGCGGAGA,0.075
24,CTGCTACA,0.035
25,CCCCCCCC,-0.467

row,Sequence,PBM E-score
1,CCGGGGCC,-0.343
2,TCGAGACA,-0.0118
3,CCCTGGGC,-0.358
4,CAAACTTC,0.137
5,AGGTACTA,0.132
6,CACTTAGC,0.00252
7,ACTTGTGG,-0.0694
8,AAATTTTC,0.047
9,CCTGTTCA,-0.08
10,AATTAATG,0.29
11,CATGACTA,0.126
12,ACCTATCC,0.0757
13,AAGGATCG,0.0628
14,CCCACAAG,0.0125
15,CAAGGAGC,-0.108
16,GAGCTGGC,-0.11
17,GAATGAGC,0.0439
18,GAGGACGC,-0.1
19,CCGTAGTC,-0.148
20,CGTCCAGC,-0.211
21,GCATGAGC,-0.00227
22,ACACAGGA,-0.0593
23,AAACGACC,0.0558
24,AAACCTCA,0.0879
25,ATTGTGGC,0.0693

row,Sequence,PBM E-score
1,CACCCCCC,-0.371
2,CCCCGGTA,-0.332
3,ACGGAGTC,-0.0179
4,AGTATCCG,0.1
5,ATATCCGA,0.241
6,AAAACAGC,0.177
7,GTCCGATA,-0.205
8,CACGGACC,-0.129
9,AACCCTAG,0.0242
10,TGTCGCAA,0.0339
11,AATCATGG,0.127
12,ATTTAAGG,0.0621
13,TGAGGGAA,-0.0685
14,AACGTCTC,-0.0711
15,CTACGCTA,-0.0909
16,AGCAGGCC,-0.183
17,AATAGTCA,-0.00331
18,GCTCCAAA,-0.217
19,ATTAATAA,0.405
20,ATCTCCGG,0.0147
21,AACGAGCA,-0.0339
22,ATCCTATG,0.0128

# Looked up one by one from above (3):
row,Sequence,PBM E-score
6,CTGATCAC,-0.0878
4,GATGTTAA,0.132
17,ACACTGTA,0.124

# Single entries from above:
# CCCACAAG – PBM E-score: 0.0125
# GCCACCTA – PBM E-score: -0.134
